In PubChem BioAssay AID1420 (Emory University Molecular Libraries Screening Center, 2008):
Screen size: about 1,100 compounds; about 65 (6%) were called active. How the calls were made is not given here. Only a part is listed here, and it is no random draw. Potency and affinity values are given separately.

Sequences of proteins named here, by UniProt entry; tags and fusion partners are left off. A change or cut given only in a name is not applied to a line headed by its entry.
UniProt P43367: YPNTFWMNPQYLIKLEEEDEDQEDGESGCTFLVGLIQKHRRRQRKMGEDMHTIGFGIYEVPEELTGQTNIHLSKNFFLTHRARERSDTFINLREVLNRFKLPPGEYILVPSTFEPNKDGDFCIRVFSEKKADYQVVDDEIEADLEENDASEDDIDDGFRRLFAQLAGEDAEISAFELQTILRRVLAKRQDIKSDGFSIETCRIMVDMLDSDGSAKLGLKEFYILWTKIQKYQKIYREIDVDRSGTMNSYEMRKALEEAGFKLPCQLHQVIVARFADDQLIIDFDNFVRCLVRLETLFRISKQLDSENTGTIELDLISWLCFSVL

Molecular target: Calpain-2 catalytic subunit (Sus scrofa) (UniProt P43367)
Assay: pig calpain II inhibitor potency, dose response, biochemical, fluorogenic peptide substrate (AID 1420)
Details: purified calpain II, 30 min; at 50 µM (top of the series)

| Compound | percent of control activity |
| --- | --- |
| O=C(NNC(=O)c1cc(OCC(F)(F)F)ccc1OCC(F)(F)F)c1cccc(C(F)(F)F)c1 | inactive: 119% |
| CC(C)CCNC(=O)[C@H](CC(C)C)NC(=O)[C@H]1O[C@@H]1C(=O)O | 13.1% |
